Assay results from patent publication US20170296490A1, “USE OF LIGNIN-DERIVED ALDEHYDES AS ANTIFUNGAL AGENTS” (Wisconsin Alumni Research Foundation, priority 2016, published 2017).
Some of these results come from one statement about several compounds together.

Tested on: Saccharomyces cerevisiae
Assay: Growth inhibition of the yeast S. cerevisiae (FIG. 5)
Assay type: cell-based
Settings: 'well below'
Text: FIG. 5 is a graph depicting dose-dependent inhibition of the yeast S. cerevisiae by sinapyl aldehyde ([…]), coniferyl aldehyde (∘), and p-hydroxycoumaryl aldehyde (▾).
FIG. 5 depicts dose-dependent inhibition of S. cerevisiae by sinapyl aldehyde ([…]), coniferyl aldehyde (∘), and p-hydroxycoumaryl aldehyde (▾).

Compound	concentration giving complete inhibition of the growth of S. cerevisiae
COc1cc(/C=C/C=O)ccc1O [coniferyl aldehyde]	below 300 μg/mL
O=C/C=C/c1ccc(O)cc1 [p-hydroxycoumaryl aldehyde]	below 300 μg/mL
